The record followed here is PMC8745108.

No constants are given. Whether binding was seen depends on the method and setting. In cells and extracts the contact can be indirect. Some binding calls cover weakened binding; strength is not graded here. Sequences can lack the tags named with a protein.

This experiment addresses T1, ER degradation-enhancing α-mannosidase-like protein 1 (EDEM1), HA-tagged (mouse) (UniProt Q925U4).
T1 sequence: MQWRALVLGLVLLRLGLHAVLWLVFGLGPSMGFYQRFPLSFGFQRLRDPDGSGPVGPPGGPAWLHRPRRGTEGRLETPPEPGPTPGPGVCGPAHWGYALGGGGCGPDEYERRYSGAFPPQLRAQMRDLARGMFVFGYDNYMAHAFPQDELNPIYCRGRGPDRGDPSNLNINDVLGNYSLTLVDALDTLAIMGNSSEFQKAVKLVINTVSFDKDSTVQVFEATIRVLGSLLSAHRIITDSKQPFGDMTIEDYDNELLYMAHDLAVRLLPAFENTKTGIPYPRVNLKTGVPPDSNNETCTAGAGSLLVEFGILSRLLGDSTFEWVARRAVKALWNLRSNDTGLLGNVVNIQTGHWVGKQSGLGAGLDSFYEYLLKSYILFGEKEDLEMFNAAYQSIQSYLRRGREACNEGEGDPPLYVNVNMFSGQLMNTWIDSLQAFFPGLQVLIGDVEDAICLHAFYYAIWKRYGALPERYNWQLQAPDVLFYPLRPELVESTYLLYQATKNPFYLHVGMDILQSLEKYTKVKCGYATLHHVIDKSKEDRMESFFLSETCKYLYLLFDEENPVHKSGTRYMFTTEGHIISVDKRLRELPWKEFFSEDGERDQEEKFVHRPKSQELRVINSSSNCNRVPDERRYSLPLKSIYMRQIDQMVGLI
The experiment can be described thus: co-IP; HEK293 cells cotransfected with APP695 and EDEM1-HA, lysed 72 h after transfection (0.1 M NaCl, 10 mM Na2HPO4, 1 mM EDTA, 1% Triton X-100, pH 7.4), sonicated; precipitated 1 h at 4 °C on protein G Dynabeads (anti-HA beads and APP blot by the legend of Figure 9; anti-APP beads and anti-HA blot by the methods); washed 3 times with HBS pH 6.8, 0.1% Tween 20.

In the case of “amyloid-β precursor protein, isoform APP695 (from UniProt P05067-4 18-695)”, the binding result is “binds”.
